Test results as given in paper PMC4011676.
No constants are given. Whether binding was seen depends on the method and setting. Binding seen in cells or lysates may run through a third protein. Some results given as binding are weak or reduced against the parent protein; the word gives no strength.

Chains of the proteins cited; added tags and fusions are not shown. Lines headed by an entry give the natural chain unless they say otherwise; changes in a name come on top.
UniProt Q13315: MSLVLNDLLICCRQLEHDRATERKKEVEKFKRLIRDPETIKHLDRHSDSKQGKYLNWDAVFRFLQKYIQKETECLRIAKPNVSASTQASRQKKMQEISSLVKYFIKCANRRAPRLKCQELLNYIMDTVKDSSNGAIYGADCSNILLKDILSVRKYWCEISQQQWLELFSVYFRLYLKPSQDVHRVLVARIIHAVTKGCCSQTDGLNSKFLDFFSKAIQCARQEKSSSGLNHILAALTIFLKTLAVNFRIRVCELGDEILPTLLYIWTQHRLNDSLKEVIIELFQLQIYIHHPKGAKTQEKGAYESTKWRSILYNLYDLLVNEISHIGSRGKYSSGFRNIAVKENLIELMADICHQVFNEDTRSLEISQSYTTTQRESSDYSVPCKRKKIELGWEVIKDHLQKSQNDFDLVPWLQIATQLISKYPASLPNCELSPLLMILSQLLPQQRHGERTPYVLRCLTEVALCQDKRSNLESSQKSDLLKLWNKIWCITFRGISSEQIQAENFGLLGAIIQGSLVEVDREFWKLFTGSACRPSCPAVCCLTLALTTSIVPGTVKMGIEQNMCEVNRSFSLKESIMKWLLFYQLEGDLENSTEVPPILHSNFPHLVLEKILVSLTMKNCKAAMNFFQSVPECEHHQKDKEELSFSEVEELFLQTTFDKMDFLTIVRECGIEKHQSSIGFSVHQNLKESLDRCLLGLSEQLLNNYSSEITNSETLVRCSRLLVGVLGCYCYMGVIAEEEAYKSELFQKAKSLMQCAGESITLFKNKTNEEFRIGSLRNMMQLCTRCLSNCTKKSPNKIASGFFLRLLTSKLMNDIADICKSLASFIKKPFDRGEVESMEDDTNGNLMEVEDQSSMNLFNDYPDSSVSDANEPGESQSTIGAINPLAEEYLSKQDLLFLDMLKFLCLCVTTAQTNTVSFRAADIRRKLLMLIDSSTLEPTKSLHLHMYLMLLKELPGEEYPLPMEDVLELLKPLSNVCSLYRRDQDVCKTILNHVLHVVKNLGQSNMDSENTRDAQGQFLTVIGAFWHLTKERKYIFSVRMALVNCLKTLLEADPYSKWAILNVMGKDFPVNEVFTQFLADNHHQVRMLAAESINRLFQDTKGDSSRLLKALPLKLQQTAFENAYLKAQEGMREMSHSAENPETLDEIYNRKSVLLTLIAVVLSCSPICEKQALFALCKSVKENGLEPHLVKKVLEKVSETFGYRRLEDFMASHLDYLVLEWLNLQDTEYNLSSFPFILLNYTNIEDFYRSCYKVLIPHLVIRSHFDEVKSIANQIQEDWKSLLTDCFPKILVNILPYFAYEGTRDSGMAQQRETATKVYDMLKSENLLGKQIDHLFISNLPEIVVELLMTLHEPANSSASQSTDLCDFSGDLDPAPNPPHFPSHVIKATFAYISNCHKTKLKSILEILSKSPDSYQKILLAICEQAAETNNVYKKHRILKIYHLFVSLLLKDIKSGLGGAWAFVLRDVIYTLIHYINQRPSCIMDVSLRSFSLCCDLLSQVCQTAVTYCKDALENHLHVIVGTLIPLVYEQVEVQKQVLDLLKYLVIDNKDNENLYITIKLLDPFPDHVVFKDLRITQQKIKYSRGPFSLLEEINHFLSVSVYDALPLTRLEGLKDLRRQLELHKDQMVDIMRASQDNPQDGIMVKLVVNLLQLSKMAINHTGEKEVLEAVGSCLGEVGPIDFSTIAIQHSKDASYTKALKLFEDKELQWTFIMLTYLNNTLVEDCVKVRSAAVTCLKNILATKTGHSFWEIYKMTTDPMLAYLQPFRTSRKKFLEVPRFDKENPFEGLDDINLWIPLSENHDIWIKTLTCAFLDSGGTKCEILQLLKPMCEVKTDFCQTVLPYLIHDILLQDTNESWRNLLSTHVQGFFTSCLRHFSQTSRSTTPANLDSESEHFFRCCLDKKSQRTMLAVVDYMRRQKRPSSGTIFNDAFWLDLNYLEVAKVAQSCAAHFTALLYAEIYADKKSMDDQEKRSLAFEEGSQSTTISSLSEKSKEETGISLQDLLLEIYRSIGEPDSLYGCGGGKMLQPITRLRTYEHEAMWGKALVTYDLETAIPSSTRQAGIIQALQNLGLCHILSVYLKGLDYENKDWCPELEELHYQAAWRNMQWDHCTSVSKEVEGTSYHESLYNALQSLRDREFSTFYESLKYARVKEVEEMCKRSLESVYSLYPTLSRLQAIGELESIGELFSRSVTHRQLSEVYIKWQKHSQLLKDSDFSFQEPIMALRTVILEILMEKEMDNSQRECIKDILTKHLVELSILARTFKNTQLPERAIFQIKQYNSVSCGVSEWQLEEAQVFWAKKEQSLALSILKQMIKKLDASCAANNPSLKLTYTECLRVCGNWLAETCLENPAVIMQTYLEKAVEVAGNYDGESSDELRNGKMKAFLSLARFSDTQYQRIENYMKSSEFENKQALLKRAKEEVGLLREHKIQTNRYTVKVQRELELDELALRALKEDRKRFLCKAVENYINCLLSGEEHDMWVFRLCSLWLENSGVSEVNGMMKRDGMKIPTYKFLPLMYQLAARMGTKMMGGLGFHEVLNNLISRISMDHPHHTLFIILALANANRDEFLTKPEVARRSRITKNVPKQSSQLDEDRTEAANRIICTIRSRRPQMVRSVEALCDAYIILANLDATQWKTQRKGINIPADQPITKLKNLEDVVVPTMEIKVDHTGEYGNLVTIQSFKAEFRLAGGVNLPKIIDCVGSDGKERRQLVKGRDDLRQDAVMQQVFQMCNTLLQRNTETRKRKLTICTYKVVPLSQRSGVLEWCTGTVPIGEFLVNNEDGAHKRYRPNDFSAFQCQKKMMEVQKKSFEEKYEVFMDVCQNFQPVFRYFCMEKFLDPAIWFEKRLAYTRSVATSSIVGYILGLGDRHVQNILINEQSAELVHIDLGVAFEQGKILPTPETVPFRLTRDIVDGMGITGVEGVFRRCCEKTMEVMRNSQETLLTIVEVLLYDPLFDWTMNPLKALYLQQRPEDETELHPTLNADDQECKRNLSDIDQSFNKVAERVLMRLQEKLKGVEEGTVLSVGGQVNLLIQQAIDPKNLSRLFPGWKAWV
UniProt O60264: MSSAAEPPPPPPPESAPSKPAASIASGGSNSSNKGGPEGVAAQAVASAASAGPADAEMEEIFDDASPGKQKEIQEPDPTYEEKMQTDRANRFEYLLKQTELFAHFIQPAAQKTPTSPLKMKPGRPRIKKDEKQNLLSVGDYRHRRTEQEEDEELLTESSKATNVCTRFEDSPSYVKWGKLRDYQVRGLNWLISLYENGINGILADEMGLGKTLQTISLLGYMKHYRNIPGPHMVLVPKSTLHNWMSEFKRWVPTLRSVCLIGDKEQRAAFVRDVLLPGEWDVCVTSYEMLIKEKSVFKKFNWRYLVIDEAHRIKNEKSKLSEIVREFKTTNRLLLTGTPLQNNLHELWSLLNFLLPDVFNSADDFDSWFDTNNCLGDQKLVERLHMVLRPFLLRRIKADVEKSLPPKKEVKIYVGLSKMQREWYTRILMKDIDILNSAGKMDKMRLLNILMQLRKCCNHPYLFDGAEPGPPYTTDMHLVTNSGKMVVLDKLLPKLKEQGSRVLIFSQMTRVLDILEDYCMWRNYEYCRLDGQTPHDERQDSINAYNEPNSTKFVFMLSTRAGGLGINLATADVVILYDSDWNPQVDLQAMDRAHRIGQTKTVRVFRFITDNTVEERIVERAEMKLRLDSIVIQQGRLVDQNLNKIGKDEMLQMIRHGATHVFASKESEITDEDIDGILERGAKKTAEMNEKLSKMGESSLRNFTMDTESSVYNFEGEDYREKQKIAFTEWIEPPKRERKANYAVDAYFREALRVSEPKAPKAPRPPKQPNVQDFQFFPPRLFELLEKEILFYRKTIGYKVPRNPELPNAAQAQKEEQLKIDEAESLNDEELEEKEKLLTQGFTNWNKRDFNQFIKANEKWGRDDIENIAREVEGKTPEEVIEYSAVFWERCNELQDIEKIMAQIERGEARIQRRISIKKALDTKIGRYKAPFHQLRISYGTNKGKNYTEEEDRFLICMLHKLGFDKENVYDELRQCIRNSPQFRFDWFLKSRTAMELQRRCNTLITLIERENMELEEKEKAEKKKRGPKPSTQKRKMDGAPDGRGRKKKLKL
UniProt Q9NRL2: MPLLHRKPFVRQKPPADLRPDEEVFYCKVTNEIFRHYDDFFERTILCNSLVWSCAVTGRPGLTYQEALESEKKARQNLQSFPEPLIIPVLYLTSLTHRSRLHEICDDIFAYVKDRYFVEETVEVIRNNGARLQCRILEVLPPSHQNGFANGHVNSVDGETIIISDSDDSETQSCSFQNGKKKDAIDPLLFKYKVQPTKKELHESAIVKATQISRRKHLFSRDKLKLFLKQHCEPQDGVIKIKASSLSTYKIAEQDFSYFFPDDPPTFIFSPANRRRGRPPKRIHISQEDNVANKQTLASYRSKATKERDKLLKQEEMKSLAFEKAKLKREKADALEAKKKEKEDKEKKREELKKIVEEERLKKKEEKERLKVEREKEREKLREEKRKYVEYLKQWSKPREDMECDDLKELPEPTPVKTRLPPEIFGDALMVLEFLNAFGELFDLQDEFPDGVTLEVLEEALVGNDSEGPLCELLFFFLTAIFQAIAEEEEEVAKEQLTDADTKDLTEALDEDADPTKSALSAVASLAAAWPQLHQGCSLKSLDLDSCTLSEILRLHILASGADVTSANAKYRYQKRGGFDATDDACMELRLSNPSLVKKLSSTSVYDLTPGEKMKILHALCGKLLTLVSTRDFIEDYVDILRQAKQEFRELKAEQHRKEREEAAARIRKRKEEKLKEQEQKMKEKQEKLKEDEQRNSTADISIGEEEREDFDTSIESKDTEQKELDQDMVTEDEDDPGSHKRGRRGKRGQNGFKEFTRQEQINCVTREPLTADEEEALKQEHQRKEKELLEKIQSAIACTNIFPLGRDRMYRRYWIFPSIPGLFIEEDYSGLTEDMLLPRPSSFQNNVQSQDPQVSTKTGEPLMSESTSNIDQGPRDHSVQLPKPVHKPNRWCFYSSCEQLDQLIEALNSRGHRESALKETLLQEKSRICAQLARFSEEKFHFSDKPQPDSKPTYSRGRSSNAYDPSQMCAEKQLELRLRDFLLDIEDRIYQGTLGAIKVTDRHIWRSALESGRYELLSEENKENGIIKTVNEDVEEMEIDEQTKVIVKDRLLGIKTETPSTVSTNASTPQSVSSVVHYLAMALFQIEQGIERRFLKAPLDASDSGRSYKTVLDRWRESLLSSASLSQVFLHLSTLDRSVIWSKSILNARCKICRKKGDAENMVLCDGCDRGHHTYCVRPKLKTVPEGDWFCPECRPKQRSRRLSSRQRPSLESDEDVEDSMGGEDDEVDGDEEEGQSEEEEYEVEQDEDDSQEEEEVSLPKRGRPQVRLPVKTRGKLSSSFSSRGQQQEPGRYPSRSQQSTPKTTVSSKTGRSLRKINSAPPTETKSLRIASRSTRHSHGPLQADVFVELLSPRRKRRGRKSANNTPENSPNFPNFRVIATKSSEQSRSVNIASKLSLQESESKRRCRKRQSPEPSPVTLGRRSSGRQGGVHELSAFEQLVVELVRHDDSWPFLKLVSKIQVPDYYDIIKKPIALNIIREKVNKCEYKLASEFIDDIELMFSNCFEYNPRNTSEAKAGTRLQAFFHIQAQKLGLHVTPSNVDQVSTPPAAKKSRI
UniProt P83916: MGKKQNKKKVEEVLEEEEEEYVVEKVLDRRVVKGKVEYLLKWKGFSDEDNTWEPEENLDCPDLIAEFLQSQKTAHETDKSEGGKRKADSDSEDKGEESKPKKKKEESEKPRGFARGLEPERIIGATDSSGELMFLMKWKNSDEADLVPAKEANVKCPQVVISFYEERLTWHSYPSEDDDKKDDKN

How the values were obtained:
[1] = biological target: T1, RSF1 (human Remodelling and Spacing Factor 1) (human) (UniProt Q96T23); assay: co-IP; anti-RSF1 immunoprecipitation from U2OS extracts, benzonase; mock or 4 Gy IR, 1 h recovery
T1 sequence: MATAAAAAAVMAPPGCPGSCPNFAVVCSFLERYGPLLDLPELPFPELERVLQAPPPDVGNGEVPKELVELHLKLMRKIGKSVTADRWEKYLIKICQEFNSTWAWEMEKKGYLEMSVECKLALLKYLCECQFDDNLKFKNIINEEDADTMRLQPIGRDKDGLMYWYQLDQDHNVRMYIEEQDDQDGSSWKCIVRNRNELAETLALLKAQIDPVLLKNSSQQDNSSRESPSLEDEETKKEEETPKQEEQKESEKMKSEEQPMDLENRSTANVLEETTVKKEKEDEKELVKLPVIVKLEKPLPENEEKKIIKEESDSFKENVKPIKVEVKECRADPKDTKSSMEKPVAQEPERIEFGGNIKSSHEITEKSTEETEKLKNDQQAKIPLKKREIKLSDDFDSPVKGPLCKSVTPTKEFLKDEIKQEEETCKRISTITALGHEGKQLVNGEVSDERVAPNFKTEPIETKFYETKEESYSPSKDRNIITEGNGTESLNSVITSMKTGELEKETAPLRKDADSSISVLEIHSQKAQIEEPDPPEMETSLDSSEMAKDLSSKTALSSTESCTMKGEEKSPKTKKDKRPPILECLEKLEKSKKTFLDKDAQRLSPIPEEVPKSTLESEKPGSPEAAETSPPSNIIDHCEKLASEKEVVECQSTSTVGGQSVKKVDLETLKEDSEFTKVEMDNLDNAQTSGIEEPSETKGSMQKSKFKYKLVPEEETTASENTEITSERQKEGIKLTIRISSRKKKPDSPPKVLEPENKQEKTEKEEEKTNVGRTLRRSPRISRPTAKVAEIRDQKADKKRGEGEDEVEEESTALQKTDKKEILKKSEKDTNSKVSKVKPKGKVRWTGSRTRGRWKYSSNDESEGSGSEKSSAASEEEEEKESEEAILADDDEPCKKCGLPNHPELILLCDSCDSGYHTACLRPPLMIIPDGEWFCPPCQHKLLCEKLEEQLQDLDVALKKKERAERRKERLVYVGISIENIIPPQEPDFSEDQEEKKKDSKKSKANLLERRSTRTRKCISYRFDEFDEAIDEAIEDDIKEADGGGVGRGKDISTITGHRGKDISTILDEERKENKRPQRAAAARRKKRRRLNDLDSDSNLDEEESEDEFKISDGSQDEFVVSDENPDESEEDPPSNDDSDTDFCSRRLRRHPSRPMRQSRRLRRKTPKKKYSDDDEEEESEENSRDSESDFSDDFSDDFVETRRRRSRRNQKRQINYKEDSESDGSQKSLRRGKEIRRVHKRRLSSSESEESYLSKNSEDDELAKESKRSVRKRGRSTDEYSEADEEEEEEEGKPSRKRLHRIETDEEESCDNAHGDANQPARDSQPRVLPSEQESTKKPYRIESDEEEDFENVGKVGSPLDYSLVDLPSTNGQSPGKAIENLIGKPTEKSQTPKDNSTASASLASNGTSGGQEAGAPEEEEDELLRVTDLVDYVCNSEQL

[2] = biological target: ATM (human Ataxia telangiectasia, mutated) (human) (UniProt Q13315); assay: co-IP; anti-ATM immunoprecipitation from soluble and chromatin fractions of U2OS cells cross-linked with 1% PFA (10 min, room temperature) before harvesting; benzonase; 10 Gy IR
[3] = biological target: ATM (human Ataxia telangiectasia, mutated) (human) (UniProt Q13315); assay: co-IP; anti-ATM immunoprecipitation from U2OS extracts, benzonase, mock-treated cells (no IR)
[4] = biological target: ATM (human Ataxia telangiectasia, mutated) (human) (UniProt Q13315); assay: co-IP; anti-ATM immunoprecipitation from HEK293 extracts, chromatin solubilised by benzonase or by 450 mM NaCl; mock, 10 Gy IR, or IR with KU55933
[5] = biological target: ATM (human Ataxia telangiectasia, mutated) (human) (UniProt Q13315); assay: co-IP; anti-ATM immunoprecipitation from U2OS extracts, benzonase in the lysis buffer, 10 Gy IR, harvested 1 h after irradiation
[6] = biological target: ATM (human Ataxia telangiectasia, mutated) (human) (UniProt Q13315); assay: co-IP; anti-ATM immunoprecipitation from U2OS extracts, benzonase, 10 Gy IR with the ATM inhibitor KU55933 added an hour before irradiation

For “CENPA (human) (from UniProt P49450 1-140)”, which binding [1] is on record?
Its binding is “binds”.

What does the source list for “CENPS/MHF1 (human, endogenous) (from UniProt Q8N2Z9-1 1-138)”?
binding [1]: binds; binding [2]: binds

How did the binding [3] turn out when “SNF2H (SMARCA5), catalytic subunit of the RSF complex (from UniProt O60264 1-1052)” was run?
Its binding is “no binding (condition: mock-treated cells (no IR))”.

What about the binding [4] of the same molecule?
The binding was “binds”.

What about the binding [5] of the same molecule?
The binding was “binds”.

And the binding [6]?
The binding was “no binding (condition: with the ATM inhibitor KU55933)”.

Which results are given for “BAZ1A (human) (from UniProt Q9NRL2 1-1556)”?
binding [4]: binds; binding [5]: binds

For HP1β (from UniProt P83916 1-185), which binding [5] is on record?
The binding was “no binding”.

B1: RSF1 (human Remodelling and Spacing Factor 1) (protein, UniProt Q96T23-1 1-1441)
chain: T1 sequence
Which results are given for B1?
binding [3]: no binding (condition: mock-treated cells (no IR)); binding [4]: binds; binding [5]: binds; binding [2]: binds; binding [6]: no binding (condition: with the ATM inhibitor KU55933)

B2: BAZ1B (human) (protein, UniProt Q9UIG0 1-1483)
chain: MAPLLGRKPFPLVKPLPGEEPLFTIPHTQEAFRTREEYEARLERYSERIWTCKSTGSSQLTHKEAWEEEQEVAELLKEEFPAWYEKLVLEMVHHNTASLEKLVDTAWLEIMTKYAVGEECDFEVGKEKMLKVKIVKIHPLEKVDEEATEKKSDGACDSPSSDKENSSQIAQDHQKKETVVKEDEGRRESINDRARRSPRKLPTSLKKGERKWAPPKFLPHKYDVKLQNEDKIISNVPADSLIRTERPPNKEIVRYFIRHNALRAGTGENAPWVVEDELVKKYSLPSKFSDFLLDPYKYMTLNPSTKRKNTGSPDRKPSKKSKTDNSSLSSPLNPKLWCHVHLKKSLSGSPLKVKNSKNSKSPEEHLEEMMKMMSPNKLHTNFHIPKKGPPAKKPGKHSDKPLKAKGRSKGILNGQKSTGNSKSPKKGLKTPKTKMKQMTLLDMAKGTQKMTRAPRNSGGTPRTSSKPHKHLPPAALHLIAYYKENKDREDKRSALSCVISKTARLLSSEDRARLPEELRSLVQKRYELLEHKKRWASMSEEQRKEYLKKKREELKKKLKEKAKERREKEMLERLEKQKRYEDQELTGKNLPAFRLVDTPEGLPNTLFGDVAMVVEFLSCYSGLLLPDAQYPITAVSLMEALSADKGGFLYLNRVLVILLQTLLQDEIAEDYGELGMKLSEIPLTLHSVSELVRLCLRRSDVQEESEGSDTDDNKDSAAFEDNEVQDEFLEKLETSEFFELTSEEKLQILTALCHRILMTYSVQDHMETRQQMSAELWKERLAVLKEENDKKRAEKQKRKEMEAKNKENGKVENGLGKTDRKKEIVKFEPQVDTEAEDMISAVKSRRLLAIQAKKEREIQEREMKVKLERQAEEERIRKHKAAAEKAFQEGIAKAKLVMRRTPIGTDRNHNRYWLFSDEVPGLFIEKGWVHDSIDYRFNHHCKDHTVSGDEDYCPRSKKANLGKNASMNTQHGTATEVAVETTTPKQGQNLWFLCDSQKELDELLNCLHPQGIRESQLKERLEKRYQDIIHSIHLARKPNLGLKSCDGNQELLNFLRSDLIEVATRLQKGGLGYVEETSEFEARVISLEKLKDFGECVIALQASVIKKFLQGFMAPKQKRRKLQSEDSAKTEEVDEEKKMVEEAKVASALEKWKTAIREAQTFSRMHVLLGMLDACIKWDMSAENARCKVCRKKGEDDKLILCDECNKAFHLFCLRPALYEVPDGEWQCPACQPATARRNSRGRNYTEESASEDSEDDESDEEEEEEEEEEEEEDYEVAGLRLRPRKTIRGKHSVIPPAARSGRRPGKKPHSTRRSQPKAPPVDDAEVDELVLQTKRSSRRQSLELQKCEEILHKIVKYRFSWPFREPVTRDEAEDYYDVITHPMDFQTVQNKCSCGSYRSVQEFLTDMKQVFTNAEVYNCRGSHVLSCMVKTEQCLVALLHKHLPGHPYVRRKRKKFPDRLAEDEGDSEPEAVGQSRGRRQKK
B2 was tested. Which binding [4] did it give?
The binding was “binds”.

And the binding [5]?
Its binding is “binds”.
